Test results published in publication PMC4062937.
Where two headings read alike, the source gives them in different places. These are yes or no findings as the source states them, for the method shown. Binding seen in cells or lysates may run through a third protein. Some results given as binding are weak or reduced against the parent protein; the word gives no strength.

Chains of the proteins cited; added tags and fusions are not shown. Residues count along the entry.
UniProt Q13586, residues 23-685: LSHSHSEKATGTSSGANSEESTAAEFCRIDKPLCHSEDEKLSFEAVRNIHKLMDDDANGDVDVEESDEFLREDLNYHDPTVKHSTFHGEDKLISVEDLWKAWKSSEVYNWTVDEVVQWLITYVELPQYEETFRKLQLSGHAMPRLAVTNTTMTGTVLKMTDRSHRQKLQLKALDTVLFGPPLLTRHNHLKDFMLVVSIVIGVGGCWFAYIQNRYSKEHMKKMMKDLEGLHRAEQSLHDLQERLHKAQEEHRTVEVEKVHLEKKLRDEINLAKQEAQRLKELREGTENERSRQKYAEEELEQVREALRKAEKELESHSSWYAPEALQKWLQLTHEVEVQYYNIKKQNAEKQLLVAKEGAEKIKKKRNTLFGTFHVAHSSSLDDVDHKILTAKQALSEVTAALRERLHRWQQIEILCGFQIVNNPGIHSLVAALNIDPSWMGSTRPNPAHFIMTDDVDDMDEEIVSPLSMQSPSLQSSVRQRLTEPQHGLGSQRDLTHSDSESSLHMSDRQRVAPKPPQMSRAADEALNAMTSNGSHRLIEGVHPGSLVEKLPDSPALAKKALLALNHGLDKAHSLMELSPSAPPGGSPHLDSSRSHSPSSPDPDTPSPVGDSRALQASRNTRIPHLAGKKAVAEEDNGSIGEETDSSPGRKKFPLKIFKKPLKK
UniProt P07996, residues 19-1170: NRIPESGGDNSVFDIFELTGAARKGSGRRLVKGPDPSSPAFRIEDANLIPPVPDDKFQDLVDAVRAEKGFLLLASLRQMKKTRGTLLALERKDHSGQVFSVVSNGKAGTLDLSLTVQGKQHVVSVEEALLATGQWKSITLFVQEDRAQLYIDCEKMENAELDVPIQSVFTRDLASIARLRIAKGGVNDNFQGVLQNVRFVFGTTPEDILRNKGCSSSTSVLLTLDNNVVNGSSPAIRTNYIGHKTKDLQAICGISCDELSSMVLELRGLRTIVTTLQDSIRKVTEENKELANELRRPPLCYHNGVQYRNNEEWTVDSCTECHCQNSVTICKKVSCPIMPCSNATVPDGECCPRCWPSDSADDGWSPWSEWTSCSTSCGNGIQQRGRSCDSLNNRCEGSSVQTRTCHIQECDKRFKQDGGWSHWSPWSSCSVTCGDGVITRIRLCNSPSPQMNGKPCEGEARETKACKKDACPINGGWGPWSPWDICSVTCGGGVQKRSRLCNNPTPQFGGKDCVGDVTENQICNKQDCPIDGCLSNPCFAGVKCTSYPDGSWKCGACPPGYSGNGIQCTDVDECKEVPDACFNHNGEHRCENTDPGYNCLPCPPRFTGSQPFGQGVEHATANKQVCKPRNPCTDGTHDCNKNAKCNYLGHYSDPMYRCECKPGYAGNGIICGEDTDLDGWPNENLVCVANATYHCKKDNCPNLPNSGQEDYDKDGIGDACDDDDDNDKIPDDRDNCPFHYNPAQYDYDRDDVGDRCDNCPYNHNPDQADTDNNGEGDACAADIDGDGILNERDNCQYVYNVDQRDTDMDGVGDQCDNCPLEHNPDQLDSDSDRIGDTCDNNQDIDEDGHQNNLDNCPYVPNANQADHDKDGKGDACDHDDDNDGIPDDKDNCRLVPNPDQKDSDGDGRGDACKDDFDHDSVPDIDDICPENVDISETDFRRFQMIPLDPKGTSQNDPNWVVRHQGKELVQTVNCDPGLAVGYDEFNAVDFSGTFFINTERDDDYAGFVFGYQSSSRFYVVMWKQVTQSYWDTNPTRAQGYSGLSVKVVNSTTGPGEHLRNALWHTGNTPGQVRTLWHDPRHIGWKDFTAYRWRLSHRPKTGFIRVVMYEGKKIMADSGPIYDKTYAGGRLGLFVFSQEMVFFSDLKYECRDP
UniProt P35579: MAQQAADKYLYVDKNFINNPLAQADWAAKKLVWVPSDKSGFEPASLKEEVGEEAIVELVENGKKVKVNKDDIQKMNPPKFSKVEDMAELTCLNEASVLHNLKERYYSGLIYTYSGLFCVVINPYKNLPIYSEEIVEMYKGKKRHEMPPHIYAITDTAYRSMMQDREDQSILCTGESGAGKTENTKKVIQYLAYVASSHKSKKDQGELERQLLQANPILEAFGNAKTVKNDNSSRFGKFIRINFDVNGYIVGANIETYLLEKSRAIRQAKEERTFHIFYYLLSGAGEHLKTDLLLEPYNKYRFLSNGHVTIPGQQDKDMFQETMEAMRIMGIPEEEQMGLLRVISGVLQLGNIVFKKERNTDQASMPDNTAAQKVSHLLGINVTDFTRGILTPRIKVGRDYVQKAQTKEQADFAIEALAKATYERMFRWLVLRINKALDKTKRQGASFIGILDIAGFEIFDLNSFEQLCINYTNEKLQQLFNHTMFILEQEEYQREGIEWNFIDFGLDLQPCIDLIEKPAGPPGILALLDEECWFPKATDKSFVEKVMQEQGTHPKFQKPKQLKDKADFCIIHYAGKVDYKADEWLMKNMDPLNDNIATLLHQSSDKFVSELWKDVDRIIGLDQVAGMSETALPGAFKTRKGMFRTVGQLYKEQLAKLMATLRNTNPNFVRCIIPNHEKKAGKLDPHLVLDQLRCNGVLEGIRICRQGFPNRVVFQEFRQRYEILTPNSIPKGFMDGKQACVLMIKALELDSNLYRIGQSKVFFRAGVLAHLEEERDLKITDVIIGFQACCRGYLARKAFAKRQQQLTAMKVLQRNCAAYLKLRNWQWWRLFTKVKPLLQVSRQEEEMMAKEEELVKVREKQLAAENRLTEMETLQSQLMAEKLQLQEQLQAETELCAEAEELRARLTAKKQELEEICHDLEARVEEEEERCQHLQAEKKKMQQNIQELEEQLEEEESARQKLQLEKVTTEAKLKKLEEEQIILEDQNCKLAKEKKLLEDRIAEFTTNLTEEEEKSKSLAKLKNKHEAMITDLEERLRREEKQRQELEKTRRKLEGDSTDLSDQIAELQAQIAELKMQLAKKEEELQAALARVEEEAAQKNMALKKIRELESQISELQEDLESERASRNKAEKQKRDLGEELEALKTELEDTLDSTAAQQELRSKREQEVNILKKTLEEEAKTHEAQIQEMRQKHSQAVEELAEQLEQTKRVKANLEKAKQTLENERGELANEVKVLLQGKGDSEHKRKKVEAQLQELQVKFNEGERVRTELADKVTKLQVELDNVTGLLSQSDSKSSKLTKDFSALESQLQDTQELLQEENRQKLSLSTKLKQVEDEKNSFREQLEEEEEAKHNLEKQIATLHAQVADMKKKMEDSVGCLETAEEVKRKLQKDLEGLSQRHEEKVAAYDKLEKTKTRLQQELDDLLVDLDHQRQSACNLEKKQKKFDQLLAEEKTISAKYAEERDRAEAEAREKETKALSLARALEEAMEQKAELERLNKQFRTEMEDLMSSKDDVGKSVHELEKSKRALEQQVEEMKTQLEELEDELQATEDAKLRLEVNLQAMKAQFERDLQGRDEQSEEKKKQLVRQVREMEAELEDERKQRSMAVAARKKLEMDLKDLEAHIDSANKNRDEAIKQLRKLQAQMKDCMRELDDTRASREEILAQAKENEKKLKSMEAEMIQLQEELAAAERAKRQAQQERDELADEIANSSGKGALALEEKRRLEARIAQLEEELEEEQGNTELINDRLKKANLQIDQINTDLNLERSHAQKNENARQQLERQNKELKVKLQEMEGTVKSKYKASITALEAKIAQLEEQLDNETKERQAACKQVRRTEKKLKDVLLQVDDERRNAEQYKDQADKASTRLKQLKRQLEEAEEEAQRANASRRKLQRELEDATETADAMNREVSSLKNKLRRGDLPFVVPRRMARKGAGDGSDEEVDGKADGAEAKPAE

What was measured:
[1] = target: Stromal interaction molecule 1 (human (endogenous in platelets)) (UniProt Q13586); assay: co-IP; STIM1 immunoprecipitated with a C-terminal polyclonal STIM1 antibody from lysates of human platelets (1 x 10^9 cells/ml; resting or treated for 1 min with thrombin, CRP or TG); Western blotting of the immunoprecipitates
[2] = target: Stromal interaction molecule 1 (human (endogenous in platelets)) (UniProt Q13586); assay: as above; remark: listed apart in the source

Molecule: Thrombospondin-1 (from UniProt P07996 19-1170)
- binding [1]: binds

Molecule: Myosin-9, non-muscle (from UniProt P35579 1-1960)
- binding [1]: binds

B1: transient receptor potential canonical 6 (protein, UniProt Q9Y210 1-931)
chain: MSQSPAFGPRRGSSPRGAAGAAARRNESQDYLLMDSELGEDGCPQAPLPCYGYYPCFRGSDNRLAHRRQTVLREKGRRLANRGPAYMFSDRSTSLSIEEERFLDAAEYGNIPVVRKMLEECHSLNVNCVDYMGQNALQLAVANEHLEITELLLKKENLSRVGDALLLAISKGYVRIVEAILSHPAFAEGKRLATSPSQSELQQDDFYAYDEDGTRFSHDVTPIILAAHCQEYEIVHTLLRKGARIERPHDYFCKCNDCNQKQKHDSFSHSRSRINAYKGLASPAYLSLSSEDPVMTALELSNELAVLANIEKEFKNDYKKLSMQCKDFVVGLLDLCRNTEEVEAILNGDVETLQSGDHGRPNLSRLKLAIKYEVKKFVAHPNCQQQLLSIWYENLSGLRQQTMAVKFLVVLAVAIGLPFLALIYWFAPCSKMGKIMRGPFMKFVAHAASFTIFLGLLVMNAADRFEGTKLLPNETSTDNAKQLFRMKTSCFSWMEMLIISWVIGMIWAECKEIWTQGPKEYLFELWNMLDFGMLAIFAASFIARFMAFWHASKAQSIIDANDTLKDLTKVTLGDNVKYYNLARIKWDPSDPQIISEGLYAIAVVLSFSRIAYILPANESFGPLQISLGRTVKDIFKFMVIFIMVFVAFMIGMFNLYSYYIGAKQNEAFTTVEESFKTLFWAIFGLSEVKSVVINYNHKFIENIGYVLYGVYNVTMVIVLLNMLIAMINSSFQEIEDDADVEWKFARAKLWFSYFEEGRTLPVPFNLVPSPKSLFYLLLKLKKWISELFQGHKKGFQEDAEMNKINEEKKLGILGSHEDLSKLSLDKKQVGHNKQPSIRSSEDFHLNSFNNPPRQYQKIMKRLIKRYVLQAQIDKESDEVNEGELKEIKQDISSLRYELLEEKSQNTEDLAELIRELGEKLSMEPNQEETNR
- binding [2]: no binding

B2: TRPC3 (protein, UniProt Q13507 1-921)
chain: MSTKVRKCKEQARVTFPAPEEEEDEGEDEGAEPQRRRRGWRGVNGGLEPRSAPSQREPHGYCPPPFSHGPDLSMEGSPSLRRMTVMREKGRRQAVRGPAFMFNDRGTSLTAEEERFLDAAEYGNIPVVRKMLEESKTLNVNCVDYMGQNALQLAVGNEHLEVTELLLKKENLARIGDALLLAISKGYVRIVEAILNHPGFAASKRLTLSPCEQELQDDDFYAYDEDGTRFSPDITPIILAAHCQKYEVVHMLLMKGARIERPHDYFCKCGDCMEKQRHDSFSHSRSRINAYKGLASPAYLSLSSEDPVLTALELSNELAKLANIEKEFKNDYRKLSMQCKDFVVGVLDLCRDSEEVEAILNGDLESAEPLEVHRHKASLSRVKLAIKYEVKKFVAHPNCQQQLLTIWYENLSGLREQTIAIKCLVVLVVALGLPFLAIGYWIAPCSRLGKILRSPFMKFVAHAASFIIFLGLLVFNASDRFEGITTLPNITVTDYPKQIFRVKTTQFTWTEMLIMVWVLGMMWSECKELWLEGPREYILQLWNVLDFGMLSIFIAAFTARFLAFLQATKAQQYVDSYVQESDLSEVTLPPEIQYFTYARDKWLPSDPQIISEGLYAIAVVLSFSRIAYILPANESFGPLQISLGRTVKDIFKFMVLFIMVFFAFMIGMFILYSYYLGAKVNAAFTTVEESFKTLFWSIFGLSEVTSVVLKYDHKFIENIGYVLYGIYNVTMVVVLLNMLIAMINSSYQEIEDDSDVEWKFARSKLWLSYFDDGKTLPPPFSLVPSPKSFVYFIMRIVNFPKCRRRRLQKDIEMGMGNSKSRLNLFTQSNSRVFESHSFNSILNQPTRYQQIMKRLIKRYVLKAQVDKENDEVNEGELKEIKQDISSLRYELLEDKSQATEELAILIHKLSEKLNPSMLRCE
- binding [2]: no binding
